{
  "source": "the supplement of paper PMC3334620",
  "note": "Whole data set: some 33,000 sequences, median “E-score (-0.5 to 0.5)” near -0.0034, cut for the highest 2% near 0.25. This is one part of the list.",
  "data": [
    {"target": "T1, Yap3 (UniProt P38749)", "T1 sequence": "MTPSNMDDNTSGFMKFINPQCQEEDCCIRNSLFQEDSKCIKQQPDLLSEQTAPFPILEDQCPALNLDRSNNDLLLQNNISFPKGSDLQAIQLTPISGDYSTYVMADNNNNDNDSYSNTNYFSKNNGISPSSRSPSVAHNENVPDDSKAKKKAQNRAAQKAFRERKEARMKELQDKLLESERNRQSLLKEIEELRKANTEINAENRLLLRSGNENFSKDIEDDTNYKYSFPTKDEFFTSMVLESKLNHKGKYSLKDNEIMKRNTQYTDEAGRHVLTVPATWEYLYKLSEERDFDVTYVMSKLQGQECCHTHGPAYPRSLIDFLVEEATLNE", "assay": "PBM E-score (8-mer binding enrichment) (E-score (-0.5 to 0.5)); higher = stronger / more preferred TF binding", "conditions": "protein concentration: 100 nM; construct: GST-full length", "summary_of_the_method": "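Detection of bound protein used fluorescent anti-GST, with scans normalised by masliner. The proteins were GST-tagged yeast transcription factors applied at about 100-200 nM to universal all-10-mer Agilent arrays made double-stranded by primer extension. Each ungapped eight-base word, pooled with its reverse complement, was scored with an E-score from the Universal PBM Analysis Suite.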", "values": [
      {"sequence": "GGTTCCTA", "PBM E-score": 0.049},
      {"sequence": "ACAAGAGG", "PBM E-score": -0.0667},
      {"sequence": "CAAGTCAA", "PBM E-score": -0.0315},
      {"sequence": "ACAGTCCA", "PBM E-score": -0.0527},
      {"sequence": "TAATGCTA", "PBM E-score": 0.203},
      {"sequence": "AGGTTAAG", "PBM E-score": -0.0592},
      {"sequence": "CGCCCCGA", "PBM E-score": -0.134},
      {"sequence": "CCTGAAGG", "PBM E-score": -0.16},
      {"sequence": "GCACAAAC", "PBM E-score": 0.0654},
      {"sequence": "CCCCAACA", "PBM E-score": -0.111},
      {"sequence": "GATGGGAA", "PBM E-score": -0.111},
      {"sequence": "CATCGATC", "PBM E-score": 0.0575},
      {"sequence": "CAGACGCA", "PBM E-score": -0.0728},
      {"sequence": "CGGCCTAA", "PBM E-score": -0.0291},
      {"sequence": "CGGTAACG", "PBM E-score": -0.146},
      {"sequence": "GGCGAGCC", "PBM E-score": -0.0901},
      {"sequence": "CTAGCGAA", "PBM E-score": -0.254},
      {"sequence": "AGATGAAA", "PBM E-score": 0.179},
      {"sequence": "ATCGATGA", "PBM E-score": 0.0972},
      {"sequence": "CCTCTCCC", "PBM E-score": -0.147},
      {"sequence": "AGTTCCAG", "PBM E-score": -0.123},
      {"sequence": "AGAGTTCG", "PBM E-score": 0.0811},
      {"sequence": "GTGACGTA", "PBM E-score": 0.227},
      {"sequence": "CGTAAGGA", "PBM E-score": 0.0166},
      {"sequence": "CAGGCCTA", "PBM E-score": 0.0511},
      {"sequence": "CCTCAGAA", "PBM E-score": -0.0691},
      {"sequence": "CACTGATA", "PBM E-score": -0.0531},
      {"sequence": "CCAGTCGC", "PBM E-score": -0.171},
      {"sequence": "ACCTACGA", "PBM E-score": -0.0771},
      {"sequence": "AGTGCCGC", "PBM E-score": -0.0573},
      {"sequence": "CATATGTC", "PBM E-score": -0.0235},
      {"sequence": "ATACCACC", "PBM E-score": 0.086},
      {"sequence": "CATGCTAG", "PBM E-score": 0.0514},
      {"sequence": "ATAAGATG", "PBM E-score": 0.176},
      {"sequence": "AATTCAAG", "PBM E-score": 0.0689},
      {"sequence": "ACTTGGGA", "PBM E-score": -0.165},
      {"sequence": "GCTCAAAA", "PBM E-score": 0.0358},
      {"sequence": "CTCTATCC", "PBM E-score": -0.00886},
      {"sequence": "GGTTCTAC", "PBM E-score": -0.134},
      {"sequence": "CTTGCTCC", "PBM E-score": -0.0937},
      {"sequence": "GTCGACTA", "PBM E-score": 0.174},
      {"sequence": "ATCGGGCA", "PBM E-score": -0.0101},
      {"sequence": "TCAAACCA", "PBM E-score": 0.165},
      {"sequence": "CACTCTAC", "PBM E-score": 0.113},
      {"sequence": "ACCAGCAG", "PBM E-score": -0.186},
      {"sequence": "CGGTGGTC", "PBM E-score": -0.194},
      {"sequence": "AGCCAGGA", "PBM E-score": -0.0633},
      {"sequence": "ACATTCAT", "PBM E-score": 0.13},
      {"sequence": "GTATTAGA", "PBM E-score": 0.217},
      {"sequence": "GCGGAGCC", "PBM E-score": -0.178},
      {"sequence": "GGCTCACC", "PBM E-score": -0.288},
      {"sequence": "TGCAACAA", "PBM E-score": 0.0351},
      {"sequence": "AACGGGGC", "PBM E-score": -0.0379},
      {"sequence": "CTCAAGTC", "PBM E-score": -0.0358},
      {"sequence": "CCCTTATA", "PBM E-score": 0.17},
      {"sequence": "AAGGAAAG", "PBM E-score": 0.0223},
      {"sequence": "AAGGTGCA", "PBM E-score": -0.0513},
      {"sequence": "CGTAGTCC", "PBM E-score": -0.184},
      {"sequence": "AACGTCAA", "PBM E-score": 0.0188},
      {"sequence": "CTTGTGAA", "PBM E-score": 0.0996},
      {"sequence": "AAACGCCA", "PBM E-score": 0.107},
      {"sequence": "AATATGGT", "PBM E-score": 0.226},
      {"sequence": "ATAGGACC", "PBM E-score": -0.0967},
      {"sequence": "GGCATGCC", "PBM E-score": 0.00174},
      {"sequence": "CTCATGCA", "PBM E-score": 0.0601},
      {"sequence": "TTATTAAA", "PBM E-score": 0.34},
      {"sequence": "CTGATAGA", "PBM E-score": -0.00922},
      {"sequence": "CATGCTGC", "PBM E-score": -0.042},
      {"sequence": "ATTTTCTC", "PBM E-score": 0.0752},
      {"sequence": "AGTAGCCA", "PBM E-score": -0.141},
      {"sequence": "AGATTCGA", "PBM E-score": -0.0893},
      {"sequence": "AAAGACCT", "PBM E-score": 0.0294},
      {"sequence": "GATTGATA", "PBM E-score": 0.22},
      {"sequence": "GACGGGTA", "PBM E-score": -0.183},
      {"sequence": "CATAGGGC", "PBM E-score": -0.204},
      {"sequence": "ACAGGCAA", "PBM E-score": 0.153},
      {"sequence": "GTGAAGCA", "PBM E-score": -0.0143},
      {"sequence": "GCCAAAGA", "PBM E-score": 0.0383},
      {"sequence": "ATATGATC", "PBM E-score": 0.294},
      {"sequence": "AGAGCGGC", "PBM E-score": -0.0586},
      {"sequence": "ATTGCCAA", "PBM E-score": -0.00347},
      {"sequence": "AATGTGGA", "PBM E-score": 0.031},
      {"sequence": "CATTCAGG", "PBM E-score": -0.0924},
      {"sequence": "CAAGAGCG", "PBM E-score": -0.0057},
      {"sequence": "ACCGATGC", "PBM E-score": -0.0869},
      {"sequence": "GTAGACAC", "PBM E-score": 0.021}
    ]}
  ]
}
